PubChem BioAssay AID1259424 – University of Nebraska Medical Center – 2018

Aim: 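Rank knockdowns across the genome by resemblance to the KSR1 depletion profile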 (primary screen)
Cells: human HCT116 colon cancer cells
Reagents: siRNA pool against human genes, 50 nM
Read-out: 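Log2 levels of six mRNAs (branched-DNA multiplex), adjusted by two reference genes and the non-targeting median, then scored against the average KSR1 knockdown pattern as Pearson r and euclidean distance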
Scale: mean correlation with KSR1 profile: higher = expression change more like KSR1 knockdown
The deposit covers about 14,000 reagents; shown is a part drawn at random. 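Higher correlation or smaller distance means closer resemblance to KSR1 loss; control wells, including KSR1 knockdowns, recur on many plates.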 Further read-outs or replicates are left out here. Not stated in the record: the time to read-out.

{"Gene": "ECD", "mean correlation with KSR1 profile": 0.0328}
{"Gene": "RABEP2", "mean correlation with KSR1 profile": 0.479}
{"Gene": "UBE2G2", "mean correlation with KSR1 profile": 0.0302}
{"Gene": "C5AR1", "mean correlation with KSR1 profile": 0.245}
{"Gene": "NSUN7", "mean correlation with KSR1 profile": 0.716}
{"Gene": "FOXD1", "mean correlation with KSR1 profile": 0.777}
{"Gene": "VPS25", "mean correlation with KSR1 profile": 0.864}
{"Gene": "H6PD", "mean correlation with KSR1 profile": 0.3}
{"Gene": "ADAM8", "mean correlation with KSR1 profile": -0.403}
{"Gene": "NDUFS8", "mean correlation with KSR1 profile": -0.0967}
{"Gene": "MTERF1", "mean correlation with KSR1 profile": -0.141}
{"Gene": "CDY1", "mean correlation with KSR1 profile": -0.301}
{"Gene": "LGALS14", "mean correlation with KSR1 profile": -0.27}
{"Gene": "CCRL2", "mean correlation with KSR1 profile": 0.488}
{"Gene": "INTS7", "mean correlation with KSR1 profile": -0.192}
{"Gene": "ATP10A", "mean correlation with KSR1 profile": -0.657}
{"Gene": "ABCA4", "mean correlation with KSR1 profile": -0.413}
{"Gene": "GBA3", "mean correlation with KSR1 profile": -0.714}
{"Gene": "DCAF5", "mean correlation with KSR1 profile": 0.655}

Single entries from the list:
For “mean correlation with KSR1 profile”, C5AR1 has 0.245
Under “mean correlation with KSR1 profile”, ATP10A is entered as -0.657
